Laboratory results taken from the supplement of paper PMC10338343.
± gives the standard deviation. Only a part is listed here, and it is no random draw. The uncertainty is large for many entries. Some of the results follow.

How the values were obtained:
[1] = tested on: MILI (PIWIL2) piRISC loaded with L1MC piRNA (26 nt); assay: pre-steady-state target cleavage rate (min^-1); higher = faster piRNA-guided slicing of the target; details: guide: L1MC piRNA 5'p-UAACUAAAUACUAUGCAAGCUGUAGG; auxiliary factor: none (no GTSF1)
Procedure, shortened: (§1)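 With or without 500 nM GTSF1 partner protein, 1 nM active affinity-purified piRISC carrying one synthetic guide was mixed with 0.1 nM transcribed, DNA-blocked target RNA library in HEPES–potassium acetate buffer at 33 °C for 0–8 or 0–960 min. Uncleaved targets were sequenced and normalised to depth and to weakly complementary targets, three trials were pooled, and k3 was capped at 0.0001 min^-1. The pre-steady-state cleavage rate came from a burst-and-steady-state fit.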

[2] = tested on: MIWI (PIWIL1) piRISC loaded with L1MC piRNA (30 nt); assay: as above; details: guide: L1MC piRNA 5'p-UAACUAAAUACUAUGCAAGCUGUAGGUCCU
Procedure, shortened: as §1

[3] = tested on: EfPiwi piRISC loaded with L1MC piRNA (26 nt); assay: pre-steady-state target cleavage rate (min^-1); guide: L1MC piRNA 5'p-UAACUAAAUACUAUGCAAGCUGUAGG; MIWI and MILI are mouse PIWI proteins and EfPiwi is from a freshwater sponge; tags in brackets are library labels; higher = faster piRNA-guided slicing of the target
Procedure, shortened: as §1

[4] = auxiliary factor: none (no GTSF1)
[5] = auxiliary factor: 500 nM Ephydatia muelleri Gtsf1
[6] = auxiliary factor: none (no Gtsf1)

| Sequence | pre-steady-state target cleavage rate [1] | pre-steady-state target cleavage rate [2, 4] | pre-steady-state target cleavage rate [3, 5] | pre-steady-state target cleavage rate [3, 6] | pre-steady-state target cleavage rate ([2]; auxiliary factor: 500 nM mouse GTSF1) |
| --- | --- | --- | --- | --- | --- |
| UCCUGGAUGUGCUUGCAUAGAAUUAAGUUA | 0.00121 ± 0.004 | 0.00167 ± 0.0036 | 0.001 ± 0.0051 | 0.000261 ± 0.03 | – |
| UCCUGGAUGUCGAAGCAUAGAAAUUAGUUA | 0.000194 ± 0.022 | 0.000232 ± 0.0084 | 0.000759 ± 0.0076 | 0.000163 ± 0.031 | – |
| UCCUGGUACACGAUGCAUAGUAUUUAGUAA | 0.00194 ± 0.0044 | 0.00143 ± 0.0061 | 0.00214 ± 0.0033 | 0.000625 ± 0.013 | – |
| UCCUGGUACAGCUUGCAUAGUAUAAUGUAA | 0.000951 ± 0.0075 | 0.00241 ± 0.0042 | 0.00129 ± 0.004 | 0.000982 ± 0.0094 | – |
| UCCUCCUACAGCUACCAUAGUAUUUUCAAA | 0.000744 ± 0.0062 | 0.000603 ± 0.011 | 0.000706 ± 0.0052 | 0.000142 ± 0.032 | – |
| UCCUGGAUGUCGAAGCAAAGUAUUUAGAUA | 0.00028 ± 0.016 | 0.000561 ± 0.011 | 0.000639 ± 0.011 | < 0.0001 | – |
| UCCUGGAACAGCUAGCAUAGUAUUUAGAAA | 0.00121 ± 0.0059 | 0.00289 ± 0.0034 | 0.00262 ± 0.0023 | 0.000175 ± 0.032 | – |
| UCCUGGAUGUGCUUGCAUAGUAUAUAGAAA | 0.000558 ± 0.012 | 0.00127 ± 0.0081 | 0.00066 ± 0.0052 | 0.000482 ± 0.016 | – |
| UCCUGCUACAGCUUGCAUAGUAUUUGUUA | 0.0016 ± 0.0035 | 0.00169 ± 0.0042 | 0.00505 ± 0.002 | 0.00127 ± 0.0069 | – |
| UCCUGGAUGUCCUUGCAUAGAAUUUAGUAA | 0.0011 ± 0.0039 | 0.00147 ± 0.0028 | 0.000395 ± 0.0065 | 0.000141 ± 0.033 | – |
| UCCUGCAUCAGCUUGCAUAGUAUUUUCAAA | 0.00135 ± 0.0034 | 0.00218 ± 0.0035 | 0.00236 ± 0.0016 | 0.000423 ± 0.012 | – |
| UCCUGGAUGUCGUUGCAAACUAUUUAGUUA | 0.000425 ± 0.0096 | 0.000582 ± 0.0095 | < 0.0001 | 0.000307 ± 0.016 | – |
| UCCUCCUACAGCUUGCAUAGUAAAAACAAA | 0.000957 ± 0.0068 | 0.000659 ± 0.014 | 0.00389 ± 0.0036 | 0.000439 ± 0.021 | – |
| UCCUGGUACAGCUUGCAUAGUUAAUAGUAA | 0.00174 ± 0.0046 | 0.00368 ± 0.004 | 0.000889 ± 0.0047 | 0.00046 ± 0.02 | – |
| UCCUGGAUGUGCUUGCAUAGUAAAAAGUAA | 0.000756 ± 0.006 | 0.000383 ± 0.0078 | 0.000346 ± 0.015 | 0.00041 ± 0.019 | – |
| UCCUGGAACAGCUUGCAUAGUAUUAACAAA | 0.000806 ± 0.006 | 0.00221 ± 0.0033 | 0.0032 ± 0.004 | < 0.0001 | – |
| UCCUGGUUCAGCUUCCAUAGUAUUUAGUUA | 0.00231 ± 0.0035 | 0.00188 ± 0.0032 | 0.00303 ± 0.0021 | 0.000664 ± 0.013 | – |
| UCCUGGAACAGCUUGGAUAGUAUUUACAAA | 0.000685 ± 0.006 | 0.00151 ± 0.0045 | 0.00254 ± 0.0019 | 0.000265 ± 0.028 | – |
| UCCUGGUACAGCUUGGUUAGUAUUUUCAAA | 0.00139 ± 0.008 | 0.000564 ± 0.014 | 0.000396 ± 0.019 | 0.000357 ± 0.04 | – |
| UCCUCCUACAGCUUCGUUAGUAUUUUCAAA | 0.000137 ± 0.018 | 0.000167 ± 0.015 | 0.000928 ± 0.0078 | 0.000224 ± 0.025 | – |
| UCCUGGAUGUGCAACCAUAGUAUUUAGUUA | 0.00161 ± 0.0039 | 0.000684 ± 0.011 | 0.000363 ± 0.013 | 0.000325 ± 0.02 | – |
| UCCUGCUACAGCAAGCAUAGUAUUUACAAA | 0.00108 ± 0.0058 | 0.000594 ± 0.012 | 0.00214 ± 0.0051 | 0.000386 ± 0.023 | – |

| Sequence | pre-steady-state target cleavage rate [1] | pre-steady-state target cleavage rate [2, 4] | pre-steady-state target cleavage rate [3, 5] | pre-steady-state target cleavage rate [3, 6] | pre-steady-state target cleavage rate ([2]; auxiliary factor: 500 nM mouse GTSF1) |
| --- | --- | --- | --- | --- | --- |
| UCCUGGAUGAGCUUGGUAAGUAUUUAGAAA | 0.000573 ± 0.012 | 0.000779 ± 0.011 | 0.000282 ± 0.023 | 0.000568 ± 0.012 | – |
| UCCUGGAACAGCUUGCAUAGUUAAUUCAAA | 0.000916 ± 0.0055 | 0.00109 ± 0.0064 | 0.00147 ± 0.0034 | 0.000124 ± 0.028 | – |
| UCCUGGAUGUCCUUGCUUAGUAUUUACUUA | 0.00246 ± 0.0028 | 0.0019 ± 0.0028 | 0.000359 ± 0.0079 | 0.000244 ± 0.021 | – |
| UCCUGCUACAGCUUGCAUUGUAUUUUCAAA | 0.00101 ± 0.0047 | 0.00111 ± 0.0046 | 0.000951 ± 0.0037 | 0.000152 ± 0.029 | – |
| UCCUGCUACAGCUACCAUAGUAUUUACAAA | 0.001 ± 0.0059 | 0.000827 ± 0.011 | 0.00078 ± 0.0042 | 0.000202 ± 0.034 | – |
| UCCUGGAUGUCCUUCCAAAGUAUUUAGUUA | 0.000147 ± 0.015 | 0.000243 ± 0.011 | 0.00026 ± 0.012 | 0.00038 ± 0.013 | – |
| UCCUGGAACACCUUGCAUAGUAUUUACAAA | 0.00121 ± 0.0049 | 0.00243 ± 0.0034 | 0.003 ± 0.0033 | 0.000823 ± 0.014 | – |
| UCCUCCUACAGCUUGCAUAGUAUAUACAAA | 0.00156 ± 0.0034 | 0.000988 ± 0.0057 | 0.00313 ± 0.003 | 0.000247 ± 0.024 | – |
| UCCUGGAUGUCGAAGCAUAGUUAAAUCAAA [g10:g16:cont:t1A] | < 0.0001 | 0.0005 ± 0.0086 | 0.000245 ± 0.013 | < 0.0001 | – |
| UCCUGGAUGUCCUUGCAUAGUAUUUAGUCUA | 0.00191 ± 0.0048 | 0.00288 ± 0.003 | 0.00301 ± 0.0024 | 0.000312 ± 0.022 | – |
| UCCUGGAACAGCUUGCAUAGUAAAAAGAAA | 0.000983 ± 0.0073 | 0.00152 ± 0.0061 | 0.00331 ± 0.0034 | 0.00072 ± 0.012 | – |
| UCCUGGUACAGCUUCCAUAGUAUUUACAAA | 0.000806 ± 0.0082 | 0.00103 ± 0.0063 | 0.00151 ± 0.0026 | 0.00029 ± 0.02 | – |
| UCCUCCUACAGCUUCCAUAGUAAUUAGUUA | 0.000628 ± 0.0092 | 0.00125 ± 0.0046 | 0.00258 ± 0.0027 | 0.000322 ± 0.015 | – |
| UCCUGGUACAGCUUGCAUAGUAUAUUCAAA | 0.00249 ± 0.0034 | 0.00133 ± 0.0077 | 0.00341 ± 0.0028 | 0.000817 ± 0.011 | – |
| UCCUGGAUGUGCUUGCAUAGUAUAAUCAAA [g8:g20:cont:t1A] | 0.000361 ± 0.015 | 0.000248 ± 0.016 | 0.000518 ± 0.0052 | 0.000361 ± 0.023 | – |
| UCCUGGAUGAGCUUGCAUACAUUUUAGUAA | 0.00065 ± 0.011 | 0.00126 ± 0.0054 | 0.000446 ± 0.0067 | 0.000229 ± 0.031 | – |
| UCCUGGAUGUCGAUGCAUAGUAUAUUGUUA | – | – | – | – | 0.000312 ± 0.028 |
| UCCUCCUACAGCUAGCAUAGUAUUUACAAA | 0.00142 ± 0.0042 | 0.00121 ± 0.0055 | 0.00397 ± 0.0031 | 0.000445 ± 0.015 | – |
| UCCUGCUACAGCUUCCAUAGUAUUAAGUUA | 0.000559 ± 0.0092 | 0.000731 ± 0.0094 | 0.00173 ± 0.0021 | 0.000157 ± 0.036 | – |
| UCCUGCUACAGCUUGCAUACUAUUUACAAA | 0.000946 ± 0.0066 | 0.00204 ± 0.0031 | 0.00175 ± 0.0032 | 0.000396 ± 0.011 | – |
| UCCUGGAUGAGCUUGCAAUAGUAUUUAGUUA | 0.00098 ± 0.0077 | 0.000574 ± 0.0047 | 0.00597 ± 0.003 | 0.002 ± 0.006 | – |
| UCCUGCUACAGCUUGCAUAGUAUUAAGAAA | 0.000942 ± 0.0061 | 0.00105 ± 0.0065 | 0.00481 ± 0.0021 | 0.000431 ± 0.016 | – |

2 neighbouring entries from above, for reference:

| Sequence | pre-steady-state target cleavage rate [1] | pre-steady-state target cleavage rate [2, 4] | pre-steady-state target cleavage rate [3, 5] | pre-steady-state target cleavage rate [3, 6] | pre-steady-state target cleavage rate ([2]; auxiliary factor: 500 nM mouse GTSF1) |
| --- | --- | --- | --- | --- | --- |
| UCCUCCUACAGCUUGCAUAGUAUAUACAAA | 0.00156 ± 0.0034 | 0.000988 ± 0.0057 | 0.00313 ± 0.003 | 0.000247 ± 0.024 | – |
| UCCUGGAUGUCGAAGCAUAGUUAAAUCAAA [g10:g16:cont:t1A] | < 0.0001 | 0.0005 ± 0.0086 | 0.000245 ± 0.013 | < 0.0001 | – |
